Results on 18 compounds are retold here after PubChem BioAssay AID493014 (National Center for Advancing Translational Sciences (NCATS), 2011).

Structures are written as SMILES. The list shows a part of the results. These are further read-outs of the screen, such as a control signal, another cell line or another target. No call is given for them. The list favours compounds with an active or inconclusive main result. Potencies come from curve fits of mixed quality, noted in brackets.

The nature of this assay: qHTS Assay to Find Inhibitors of Chronic Active B-Cell Receptor Signaling. The settings on record: ABC-DLBCL IkBa-CBG/CBR reporter, luminescence ratio (green luciferase fused to IkBa over red control in TMD8 lymphoma cells), 4 h. In outline: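 TMD8 ABC-DLBCL cells carrying doxycycline-inducible green luciferase fused to IkappaBalpha plus unfused red luciferase were exposed to compounds (up to 46 uM) for 4 hrs at 37C. Activity came from the overlap-corrected green/red luminescence ratio.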

The mark [1] stands for this setting: measured here: CBR red luminescence, cell number.

The AC50 is the concentration giving half of the maximal activity seen. As for `CCCc1ccc2oc(C(=O)NCc3nnc(C)o3)c(C)c2c1`, the AC50 under setting [1] is 7.94 µM [rising, partial curve].
Take `C[C@@]12CCC3[C@@](CCC4[C@@]3(C)CCC[C@@]4(C)C(=O)NCc3ccccc3)(CC1=O)C2` (some centres undefined): under setting [1], the half-maximal activity concentration (AC50) is 29.1 µM [falling, single point].
In the case of `COc1ccc(-c2nc(N)ncc2-c2ccc(Cl)cc2)c(O)c1`, the concentration at half-maximal activity (AC50) under setting [1] was 8.91 µM [falling, partial curve, poor fit].
The same measure, in the same setting: the value for `COC(=O)c1ccc(NC(=O)c2ccco2)cc1` was 20 µM [falling, single point]; that for `Cc1ccsc1-c1cc(C(=O)O)c2c(ccc3ccccc32)n1` was 17.8 µM [falling, partial curve, poor fit]; that for `c1ccc(-c2nc(Sc3ncnc4c3cnn4-c3ccccc3)n[nH]2)cc1` was 10 µM [falling, partial curve].
Take `O=C(COc1ncnc2c1cnn2-c1ccccc1)Nc1ccc(S(=O)(=O)N2CCCCC2)cc1`: the AC50 was 1.03 µM [falling, full curve, poor fit] under setting [1] and 23.1 µM [rising, partial curve, poor fit] (measured here: IkBa-CBG green luminescence).
Take `C=CC[C@H]1CC(C)=C[C@H](CC=C)N1`: the AC50 under setting [1] is 5.01 µM [rising, partial curve, poor fit].
As for `O=C1c2cccnc2C(=O)N1Cc1ccc(S(=O)(=O)N2CCOc3ccc(Cl)cc32)cc1`, the AC50 under setting [1] is 20 µM [falling, single point].
In the case of `CCOc1ccc(C2=Nn3c(nnc3-c3cccnc3)SC2)cc1`, under setting [1], the AC50 is 35.5 µM [falling, single point].
Regarding `CCOc1ccc(-c2noc(COC)n2)cc1OC`, the AC50 under setting [1] is 9.2 µM [rising, partial curve].
As for `COc1ccc(CCC(C)N(C)Cc2ccccc2)cc1` (centres undefined), the AC50 under setting [1] was 31.6 µM [rising, single point].
For the compound `Cc1onc(-c2ccccc2)c1NC(=O)Nc1ccc(OC(F)F)cc1`, the concentration at half-maximal activity (AC50) under setting [1] is 7.08 µM [rising, partial curve, poor fit].
Take `CN(C)c1ccc(NC(=O)/C=C/c2ccccc2Cl)cc1`: under setting [1], the AC50 is 4.11 µM [falling, partial curve].
Take `CC(=O)c1sc(N/N=C/c2cccc(O)c2)nc1C`: the AC50 under setting [1] was 3.98 µM [falling, full curve, poor fit].
Still for that read-out and setting: the value for `COC(=O)COc1cccc(NC(=O)c2cccc(C)c2)c1` was 0.0891 µM [falling, full curve, poor fit].
Turning to `O=C(c1ccccc1)c1n[nH]c(-c2ccccc2)cc1=O`, the AC50 under setting [1] is 10 µM [falling, partial curve].
On the same count and under the same terms, the value for `Fc1ccc(C2NCCn3cccc32)cc1` (centres undefined) was 11.2 µM [falling, partial curve, poor fit].
